Our source for the binding values is paper doi:10.1101/2020.09.12.286559 (bioRxiv, 2020).

These are yes or no findings as the source states them, for the method shown. Where a sequence is shown, tags or fusion partners need not be part of it.

The target of assay [1] is N-terminal HA-tagged TIN2L (HA-TIN2L, 1-451 aa) (human) (UniProt Q9BSI4). As to the kind of experiment: AFM volume analysis.
Assay [2] has as its target N-terminal HA-tagged TIN2S (HA-TIN2S, 1-354 aa) (human) (UniProt Q9BSI4). As to the kind of experiment: AFM volume analysis.

B1: N-terminal HA-tagged TIN2L (HA-TIN2L, 1-451 aa) (protein, UniProt Q9BSI4-1 1-451)
chain: MATPLVAGPAALRFAAAASWQVVRGRCVEHFPRVLEFLRSLRAVAPGLVRYRHHERLCMGLKAKVVVELILQGRPWAQVLKALNHHFPESGPIVRDPKATKQDLRKILEAQETFYQQVKQLSEAPVDLASKLQELEQEYGEPFLAAMEKLLFEYLCQLEKALPTPQAQQLQDVLSWMQPGVSITSSLAWRQYGVDMGWLLPECSVTDSVNLAEPMEQNPPQQQRLALHNPLPKAKPGTHLPQGPSSRTHPEPLAGRHFNLAPLGRRRVQSQWASTRGGHKERPTVMLFPFRNLGSPTQVISKPESKEEHAIYTADLAMGTRAASTGKSKSPCQTLGGRALKENPVDLPATEQKENCLDCYMDPLRLSLLPPRARKPVCPPSLCSSVITIGDLVLDSDEEENGQGEGKESLENYQKTKFDTLIPTLCEYLPPSGHGAIPVSSCDCRDSSRPL
Consider B1, for which the binding entry in assay [1] is “no binding”.

B2: N-terminal HA-tagged TIN2S (HA-TIN2S, 1-354 aa) (protein, UniProt Q9BSI4-2 1-354)
chain: MATPLVAGPAALRFAAAASWQVVRGRCVEHFPRVLEFLRSLRAVAPGLVRYRHHERLCMGLKAKVVVELILQGRPWAQVLKALNHHFPESGPIVRDPKATKQDLRKILEAQETFYQQVKQLSEAPVDLASKLQELEQEYGEPFLAAMEKLLFEYLCQLEKALPTPQAQQLQDVLSWMQPGVSITSSLAWRQYGVDMGWLLPECSVTDSVNLAEPMEQNPPQQQRLALHNPLPKAKPGTHLPQGPSSRTHPEPLAGRHFNLAPLGRRRVQSQWASTRGGHKERPTVMLFPFRNLGSPTQVISKPESKEEHAIYTADLAMGTRAASTGKSKSPCQTLGGRALKENPVDLPATEQKE
For the molecule B2, the binding entry in assay [2] was “no binding”.
